At least one compound was matched to its structure with a doubt left.
System: U251 human CNS tumor cells (glioblastoma)
Conditions: temozolomide 80 mg/kg/dose po q4d×3
From the text: Tumor Model: Each animal was implanted with one million U251 human CNS tumor cells from an in vitro cell line by ic injection with a 25 gauge needle. The day of tumor implantation (May 24, 2006) was designated as day 0. A sufficient number of mice were implanted so that animals with body weights in a range as narrow as possible were selected for the trial on the day of treatment initiation (day 1 after tumor implantation). Animals were randomly assigned to the treatment groups and individually identified by earmark codes.
A portion of this solution was then diluted with the complete vehicle to achieve the lower dosing concentration of 1.2 mg/mL. […] Temozolomide (Temodar, Schering Corporation) was prepared on each day of injection in Klucel+tween 80 at a concentration of 4 mg/mL. Temozolomide was administered within 5 minutes of formulation on the basis of exact body weight using a volume of 0.2 mL/10 g of body weight.
Data Collection: Animal health surveillance was conducted and mortality data were collected daily. The animals were weighed twice weekly starting with the first day of treatment. […]
Parameters Evaluated: Number of 100-day survivors, median day of death, and the increase in lifespan based on median day of death and expressed as a percentage (% ILS), median survival time and the % ILS based on median survival time.

## Cn1nnc2c(C(N)=O)ncn2c1=O [temozolomide, Temozolomide]
  survivors day 100: one
